According to the supplement of paper PMC9015667:
Where a name gives a salt, the structure may show the parent alone. ± gives the standard deviation of the averaged measurements. The list shows a part of the results. Single values are uncertain, as repeats are few or missing.

Key:
Experiment in all cases: reduction in cell viability relative to untreated/vehicle; higher = more growth inhibition
Settings in all cases: 200 nM; 72 h
M229P = tested on: M229P (parental melanoma line)
M229R = tested on: M229R (matched melanoma line resistant to BRAF inhibitors)
M238P = tested on: M238P (parental melanoma line)
M238R = tested on: M238R (matched melanoma line resistant to BRAF inhibitors)
M249P = tested on: M249P (parental melanoma line)
M249R = tested on: M249R (matched melanoma line resistant to BRAF inhibitors)
UACC62P = tested on: UACC62P (parental melanoma line)
UACC62R = tested on: UACC62R (matched melanoma line resistant to BRAF inhibitors)

Measured: reduction in cell viability

CN(C)CCc1ccc(O)cc1 [Hordenine]
1.8%: UACC62P
< 0%: all other assays above

C[C@]12CC[C@H]3[C@@H](CCC4=CC(=O)CC[C@@H]43)[C@@H]1CC[C@@H]2OC(=O)CCc1ccccc1 [Nandrolone phenpropionate]
< 0%: all assays above

C#CCN(C)[C@H](C)Cc1ccccc1 [Selegiline hydrochloride]
4.66%: M238R
10.6%: UACC62P
< 0%: all other assays above

CO/C1=C\C(C)=C\[C@@H](C)[C@@H](O)[C@@H](C)C/C(C)=C/C=C/[C@H](OC)[C@@H]([C@@H](C)[C@@H](O)[C@H](C)[C@@]2(O)C[C@@H](O)[C@H](C)[C@@H](C(C)C)O2)OC1=O [Bafilomycin A1]
92.9%: UACC62R
88%: M249R
53.8%: M229P
69%: UACC62P
89.1%: M249P
57.9%: M229R
54.4%: M238P
45%: M238R

CC(N[C@H]1C[C@@H]1c1ccccc1)c1ccc2c(c1)OCCO2 (stereo partly drawn)
0.12%: M249P
< 0%: all other assays above

N[C@@H]1C[C@H]1c1ccccc1.N[C@H]1C[C@@H]1c1ccccc1 [Tranylcypromine]
< 0%: all assays above

Cc1ccccc1-n1c(Cn2cnc3c(N)ncnc32)nc2cccc(C)c2c1=O
< 0%: all assays above

COc1ccc2c(c1)CN(C)CC2c1ccc(Cl)c(Cl)c1 (stereo not drawn) [Diclofensine]
< 0%: all assays above

NCC1(CC(=O)O)CCCCC1 [Gabapentin]
2.4%: UACC62P
< 0%: all other assays above

Clc1ccccc1C(c1ccccc1)(c1ccccc1)n1cccn1
3.99%: UACC62P
< 0%: all other assays above

CC[C@@]1(O)C(=O)OCc2c1cc1n(c2=O)Cc2cc3ccccc3nc2-1 [Camptothecin]
50.6%: M238R
87.2%: M229R
64.2%: M249P
83.2%: M238P
55.7%: M229P
74.4%: UACC62R
81%: M249R | UACC62P

O=C(N[C@H]1CN2CCC1CC2)c1ccc(Cl)cc1
6.46%: M249P
< 0%: all other assays above

CCN(CC)C(=O)c1ccc(C2=CC3(CCNCC3)Oc3cccc(O)c32)cc1
< 0%: all assays above

CCN1CCN(C(=O)Cc2ccc(Nc3ncc(F)c(Nc4ccc(C(=O)Nc5ccccc5Cl)cc4)n3)cc2)CC1 [Aurora A Inhibitor I]
38%: UACC62P
74.2%: UACC62R
< 0%: M238R | M249R
12.6%: M229P
19.2%: M238P
16.1%: M229R
2.86%: M249P

c1ccc(CCCN2CCN(CCOC(c3ccccc3)c3ccccc3)CC2)cc1
8.75%: UACC62P
< 0%: all other assays above

CN1[C@@H]2CC[C@H]1C[C@@H](OC(=O)C(CO)c1ccccc1)C2 (stereo partly drawn) [Atropine]
1.53%: UACC62P
< 0%: all other assays above

CC1=C(CC/C(C)=C/CCC2=CC[C@H](C3=CC(=O)O[C@H]3O)O[C@H]2O)C(C)(C)CCC1 [Manoalide]
< 0%: all assays above

O=C1C=CC[C@@H]2[C@H]3CCCN4CCC[C@@H](CN12)[C@@H]34 [Sophocarpine]
< 0%: all assays above

C=C[C@H]1CN2CC[C@H]1C[C@H]2[C@H](O)c1ccnc2ccccc12 [Cinchonidine]
< 0%: all assays above

Cc1cc2c(C(C)C)c(O)c(O)c(C=O)c2c(O)c1-c1c(C)cc2c(C(C)C)c(O)c(O)c(C=O)c2c1O [(-)-Gossypol]
< 0%: all assays above

CC(C)[C@H]1C(=O)N[C@H](CO)Cc2c[nH]c3cccc(c23)N1C [(-)-Indolactam V]
0.43%: M249R
45.7%: M238R
9.33%: M249P
27.5%: M229R
11.6%: M229P
68.3%: UACC62R
21.5%: UACC62P
36.9%: M238P

COc1ccc(C(=O)N2CCCC2=O)cc1 [Aniracetam]
< 0%: all assays above

C/C(=C\c1csc(C)n1)[C@@H]1C[C@@H]2O[C@@H]2CCC[C@H](C)[C@H](O)[C@@H](C)C(=O)C(C)(C)[C@@H](O)CC(=O)O1 [Epothilone A]
59.2%: M249R
81.8%: M238P
87%: UACC62R
51.2%: UACC62P
59.4%: M229R
85.9%: M238R
37.4%: M229P
68.4%: M249P

C/C=C(/C)C(=O)O[C@H]1C(C)=C2[C@H]([C@@H]1OC(=O)CCCCCCC)[C@@](C)(OC(C)=O)C[C@H](OC(=O)CCC)[C@@]1(O)[C@H]2OC(=O)[C@@]1(C)O [Thapsigargin]
74.5 ± 7.1%: UACC62R
54.8 ± 1.9%: M238R
79.84 ± 0.43%: M238P
33.3 ± 11%: UACC62P
66.8 ± 3.5%: M229R
22.4 ± 0.69%: M249P
62.2 ± 4.7%: M249R
59.26 ± 0.099%: M229P

CC[C@@H](C(N)=O)N1CCCC1=O [Levetiracetam]
1.09%: UACC62P
< 0%: all other assays above

CN(C)NC(=O)CCC(=O)O [Daminozide]
0.28%: UACC62P
< 0%: all other assays above

O=c1[nH]c2ccccc2n1CCCN1CCC(n2c(=O)[nH]c3cc(Cl)ccc32)CC1 [Domperidone]
3.6%: UACC62P
< 0%: all other assays above

COc1ccc(Cc2nccc3cc(OC)c(OC)cc23)cc1OC [Papaverine hydrochloride]
18.5%: UACC62R
< 0%: all other assays above

COc1ccc2c(c1OC)CN1CCc3cc4c(cc3C1C2)OCO4 (stereo not drawn) [Tetrahydroberberine]
< 0%: all assays above

Cc1cc(SCc2sc(-c3ccc(C(F)(F)F)c(F)c3)nc2C)ccc1OCC(=O)O
3.9%: M249P
8.51%: UACC62P
< 0%: all other assays above

O=S(=O)(CC1CS1)c1ccc(Oc2ccccc2)cc1 (stereo not drawn)
< 0%: all assays above

N#C[C@H](O[C@@H]1O[C@H](CO[C@@H]2O[C@H](CO)[C@@H](O)[C@H](O)[C@H]2O)[C@@H](O)[C@H](O)[C@H]1O)c1ccccc1 [Amygdalin]
< 0%: all assays above

COc1cc([C@@H]2c3cc4c(cc3[C@H](O)[C@H]3COC(=O)[C@@H]23)OCO4)cc(OC)c1OC [Picropodophyllin]
40.3%: M249R
60.4%: M238R
71%: UACC62R
39.8%: UACC62P
32.6%: M229P
62.9%: M238P
56.4%: M229R
32.2%: M249P

CC1(N2CCC(n3c([C@@H]4CCCNC4)nc4ccccc43)CC2)CCCCCCC1
3.02%: M229P
17.5%: M249R
3.93%: UACC62P
< 0%: all other assays above

C=C[C@H]1CN2CC[C@H]1C[C@@H]2[C@@H](O)c1ccnc2ccccc12 [Cinchonine dihydrochloride]
< 0%: all assays above

Cc1c(C(=O)c2cccc3ccccc23)c2cccc3c2n1[C@H](CN1CCOCC1)CO3
0.01%: UACC62P
< 0%: all other assays above

Quoted from above (eleven entries):
CC[C@@H](C(N)=O)N1CCCC1=O [Levetiracetam]
1.09%: UACC62P
< 0%: all other assays above

CN(C)NC(=O)CCC(=O)O [Daminozide]
0.28%: UACC62P
< 0%: all other assays above

O=c1[nH]c2ccccc2n1CCCN1CCC(n2c(=O)[nH]c3cc(Cl)ccc32)CC1 [Domperidone]
3.6%: UACC62P
< 0%: all other assays above

COc1ccc(Cc2nccc3cc(OC)c(OC)cc23)cc1OC [Papaverine hydrochloride]
18.5%: UACC62R
< 0%: all other assays above

COc1ccc2c(c1OC)CN1CCc3cc4c(cc3C1C2)OCO4 (stereo not drawn) [Tetrahydroberberine]
< 0%: all assays above

Cc1cc(SCc2sc(-c3ccc(C(F)(F)F)c(F)c3)nc2C)ccc1OCC(=O)O
3.9%: M249P
8.51%: UACC62P
< 0%: all other assays above

O=S(=O)(CC1CS1)c1ccc(Oc2ccccc2)cc1 (stereo not drawn)
< 0%: all assays above

N#C[C@H](O[C@@H]1O[C@H](CO[C@@H]2O[C@H](CO)[C@@H](O)[C@H](O)[C@H]2O)[C@@H](O)[C@H](O)[C@H]1O)c1ccccc1 [Amygdalin]
< 0%: all assays above

COc1cc([C@@H]2c3cc4c(cc3[C@H](O)[C@H]3COC(=O)[C@@H]23)OCO4)cc(OC)c1OC [Picropodophyllin]
40.3%: M249R
60.4%: M238R
71%: UACC62R
39.8%: UACC62P
32.6%: M229P
62.9%: M238P
56.4%: M229R
32.2%: M249P

CC1(N2CCC(n3c([C@@H]4CCCNC4)nc4ccccc43)CC2)CCCCCCC1
3.02%: M229P
17.5%: M249R
3.93%: UACC62P
< 0%: all other assays above

C=C[C@H]1CN2CC[C@H]1C[C@@H]2[C@@H](O)c1ccnc2ccccc12 [Cinchonine dihydrochloride]
< 0%: all assays above

Going on with the list:

Cn1cc(C2=C(c3cn(C4CCN(Cc5ccccn5)CC4)c4ccccc34)C(=O)NC2=O)c2ccccc21 [Enzastaurin]
15.1%: M249R
< 0%: all other assays above

CSCC[C@H](NC(=O)[C@H](Cc1ccccc1)NC(=O)CNC(=O)CNC(=O)[C@@H](N)Cc1ccc(O)cc1)C(=O)O [Metenkephalin]
< 0%: all assays above

CC(C)(C)[C@]1(O)CC2OC(=O)CC23C(=O)OC2OC(=O)[C@H](O)C231 (stereo partly drawn) [Bilobalide]
< 0%: all assays above

CCN1C[C@]2(OC(=O)c3ccccc3NC(C)=O)CC[C@H](OC)[C@@]34[C@@H]2C[C@@H]([C@@H]13)[C@@]1(O)C[C@H](OC)[C@H]2C[C@@H]4[C@]1(O)[C@H]2OC [Lappaconitine]
< 0%: all assays above

C[C@]12CCC(=O)C(O)=C1CC[C@@H]1[C@@H]2CC[C@]2(C)C(=O)CC[C@@H]12 [4-Hydroxyandrostenedione]
< 0%: all assays above
